The source of these data is US10426772B2, “Use of ergot alkaloids as an anthelmintic agent” (priority 2016, dated 2019).

Sequences of proteins named here, by UniProt entry; tags and fusion partners are left off.
UniProt A0A173FEI8, entry or part of it: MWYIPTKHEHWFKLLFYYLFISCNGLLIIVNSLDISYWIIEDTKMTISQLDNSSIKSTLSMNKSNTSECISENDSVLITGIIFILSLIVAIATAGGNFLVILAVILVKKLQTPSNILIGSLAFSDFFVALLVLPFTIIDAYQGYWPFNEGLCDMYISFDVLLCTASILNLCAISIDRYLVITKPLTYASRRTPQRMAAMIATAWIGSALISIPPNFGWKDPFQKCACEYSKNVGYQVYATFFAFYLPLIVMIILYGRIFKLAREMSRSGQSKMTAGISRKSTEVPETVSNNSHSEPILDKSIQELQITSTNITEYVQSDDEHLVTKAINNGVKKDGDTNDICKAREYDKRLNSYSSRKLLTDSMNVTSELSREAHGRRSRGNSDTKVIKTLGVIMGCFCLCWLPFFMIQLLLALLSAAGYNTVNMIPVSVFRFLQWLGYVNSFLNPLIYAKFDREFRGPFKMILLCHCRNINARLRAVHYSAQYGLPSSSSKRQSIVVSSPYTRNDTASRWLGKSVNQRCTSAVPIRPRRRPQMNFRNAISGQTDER
UniProt G4V5G4, entry or part of it: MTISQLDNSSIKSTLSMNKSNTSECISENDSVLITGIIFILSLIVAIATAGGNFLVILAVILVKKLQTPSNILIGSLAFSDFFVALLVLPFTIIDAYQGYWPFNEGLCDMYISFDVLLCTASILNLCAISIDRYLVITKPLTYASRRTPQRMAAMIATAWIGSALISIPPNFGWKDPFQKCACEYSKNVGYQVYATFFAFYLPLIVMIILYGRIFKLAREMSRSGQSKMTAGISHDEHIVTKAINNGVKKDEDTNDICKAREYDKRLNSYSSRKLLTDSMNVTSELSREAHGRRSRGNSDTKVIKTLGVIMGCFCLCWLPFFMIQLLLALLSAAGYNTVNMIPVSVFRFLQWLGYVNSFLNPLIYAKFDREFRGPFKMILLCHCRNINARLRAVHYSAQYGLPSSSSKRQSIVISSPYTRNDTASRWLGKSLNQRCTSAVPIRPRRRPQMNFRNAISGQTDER

The Emax is the maximal effect, on the per cent scale that the assay sets.

The structures appear in SMILES notation.

Experiment [1] has as its target Sm.5HTR (Schistosoma mansoni, UniProt A0A173FEI8). The experiment in a line: cell-based. The following applies: HEK293, read-out: Sm.5HTR Emax. On the procedure: HEK293 cells (ATCC CRL-1573.3) were cultured in growth media consisting of DMEM supplemented with GlutaMAX (Gibco cat #10566016)+10% heat inactivated fetal bovine serum and penicillin-streptomycin (100 units/mL, ThermoFisher). Stable cell lines for the pGloSensor-22F cAMP Plasmid (Promega) and schistosome 5HTRs in pcDNA3.1(−) were selected with hygromycin (200 μg/mL) and G418 (400 μg/mL). The correct identity of each stably expressed sequence was verified by isolating total RNA from each stable line (TRIzol Reagent, Ambion) and amplifying the sequence of interest with gene specific primers flanking the 5′ and 3′ regions of the cds (SuperScript® III One-Step RT-PCR System, Invitrogen). PCR products were ligated into a TA cloning vector (pGEM-T Easy, Promega) and sequenced.
HEK293 lines stably expressing both the 22F cAMP sensor and Sm.5HTR were cultured in growth media supplemented with 10% dialyzed FRS. For cAMP assays in 96 well format, cells cultured in T-75 flasks were trypsinized (TrypLE Express, Gibco) and plated in solid white 96 well plates (Costar cat #3917) the day prior to assay at a density of 2.5×10^4 cells/well. […] Readings performed in 384 well format were modified so that cells were assayed in suspension. […]

The target of experiment [2] is Sm.5HTR (Schistosoma mansoni, UniProt G4V5G4). The class given is cell-based. On the procedure:
(§1) HEK293 cells (ATCC CRL-1573.3) were cultured in DMEM supplemented with 10% fetal bovine serum (FBS), penicillin (100 units/mL), streptomycin (100 μg/mL), and L-glutamine (290 μg/mL). Cells were transiently transfected (ViaFect, Promega) as per the manufacturer's protocol at a density of 2×10^6 cells per T-25 cell-culture flask. Cells were transfected with plasmids encoding GloSensor (Promega) and either Sm.5HTR, (Smp_126730, GenBank accession number KF444051.1) or Sm.5HTRL (KX150867), both GPCRs being codon optimized for mammalian expression, or Hs.5HT7a (GenBank accession number NM_000872.4, R&D Systems) subcloned into pCS2(−). Cell culture reagents were from Invitrogen. Epitope tagged constructs were used to verify expression, and untagged constructs used for all luminescence assays.
(§2) For assays performed on adherent cells, HEK-293 cells were transferred one day post transfection to 96 well, solid white plates (Corning, cat #3917) coated with 0.01% poly-L-lysine (Sigma Aldrich) at a density of 5×10^4 cells/well in DMEM supplemented with 1% dialyzed FBS (Gibco). […] Plates were allowed to equilibrate at room temperature for two hours prior to performing luminescence assays (GloMax-Multi Detection System plate reader, Promega). […]
The protocol for screening is shown schematically in FIG. 5A. […] Luminescence was then read at a fixed time point (t=60 minutes, FIG. 5A). […]

Experiment [3] has as its target Sm.5HTRL (Schistosoma mansoni, UniProt A0A173FEI8). The experiment in a line: GloSensor cAMP assay, HEK293 cells transiently transfected with Sm.5HTRL. The experiment is classed as cell-based. The following applies: antagonists 10 μM; 5-HT EC80 dose 0.8 μM (FIG. 8). On the procedure:
as §1, §2
For orientation: Changes in cAMP serve as a functional read-out for many G protein-coupled receptors.

For `CCN(CC)C(=O)N[C@H]1C=C2c3cccc4[nH]cc(c34)C[C@H]2N(C)C1` [lisuride], the Emax in experiment [1] is 59 ± 25%. For the compound `Cc1ccccc1C(OCCN(C)C)c1ccccc1` (stereo not drawn) [orphenadrine], in experiment [2], the “selectivity Sm.5HTR versus Hs.5HT7R (IC50 (Hs.5HT7R)/IC50 (Sm.5HTR)), in words” value is “clear selectivity for Sm.5HTR”. For the same compound, in experiment [3], the “inhibition of 5-HT evoked cAMP generation through Sm.5HTRL” value is reported as “inhibited 5-HT evoked cAMP generation through Sm.5HTRL”.
